The list shows a part of the results, in another mix than the full data. The calls were merged from several studies; some rest on single wells. The list shows a part of the results.
How the values were obtained:
Conditions in all cases: stereoisomer not certain
UniProt Q8VGZ7 = target: T1, UniProt Q8VGZ7
T1 sequence (whole entry): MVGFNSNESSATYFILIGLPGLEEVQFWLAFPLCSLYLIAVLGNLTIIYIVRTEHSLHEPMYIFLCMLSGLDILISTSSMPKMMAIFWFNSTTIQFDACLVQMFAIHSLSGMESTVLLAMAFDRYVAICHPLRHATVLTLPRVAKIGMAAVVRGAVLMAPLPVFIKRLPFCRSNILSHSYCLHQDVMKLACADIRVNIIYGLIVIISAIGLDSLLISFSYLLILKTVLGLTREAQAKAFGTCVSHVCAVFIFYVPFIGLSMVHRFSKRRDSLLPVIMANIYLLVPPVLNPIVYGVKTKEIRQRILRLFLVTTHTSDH
How it was run: (§1)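 Assay methods differ from source to source, frequently being transient luciferase assays in mammalian cell lines. For each receptor–molecule pair, the label responsive (active) applies when the original authors judged the measured signal statistically different from baseline, and non-responsive (inactive) applies otherwise.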

By UniProt entry, the sequences of proteins in these tests, tags left out. Chains listed by the source or under a name are the forms on record and can include a tag or linker.
UniProt Q9R0K2, as listed by the source: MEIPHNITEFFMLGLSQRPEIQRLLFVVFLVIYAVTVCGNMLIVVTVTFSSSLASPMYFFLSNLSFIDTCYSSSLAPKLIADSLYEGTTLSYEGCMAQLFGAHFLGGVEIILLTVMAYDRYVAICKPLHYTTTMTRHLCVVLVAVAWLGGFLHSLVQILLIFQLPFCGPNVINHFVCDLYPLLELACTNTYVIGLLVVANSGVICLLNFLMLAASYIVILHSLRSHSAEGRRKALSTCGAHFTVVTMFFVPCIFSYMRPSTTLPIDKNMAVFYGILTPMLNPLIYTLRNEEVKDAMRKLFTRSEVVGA
UniProt Q9WVD9, as listed by the source: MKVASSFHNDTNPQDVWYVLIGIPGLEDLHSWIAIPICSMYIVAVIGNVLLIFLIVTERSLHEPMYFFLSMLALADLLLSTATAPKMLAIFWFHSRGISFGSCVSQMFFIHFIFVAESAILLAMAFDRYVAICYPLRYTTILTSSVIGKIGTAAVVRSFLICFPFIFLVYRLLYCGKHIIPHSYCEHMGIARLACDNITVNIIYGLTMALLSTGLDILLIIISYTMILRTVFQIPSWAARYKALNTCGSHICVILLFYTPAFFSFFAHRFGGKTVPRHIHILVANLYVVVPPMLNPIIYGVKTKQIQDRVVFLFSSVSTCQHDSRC
UniProt Q924X8, as listed by the source: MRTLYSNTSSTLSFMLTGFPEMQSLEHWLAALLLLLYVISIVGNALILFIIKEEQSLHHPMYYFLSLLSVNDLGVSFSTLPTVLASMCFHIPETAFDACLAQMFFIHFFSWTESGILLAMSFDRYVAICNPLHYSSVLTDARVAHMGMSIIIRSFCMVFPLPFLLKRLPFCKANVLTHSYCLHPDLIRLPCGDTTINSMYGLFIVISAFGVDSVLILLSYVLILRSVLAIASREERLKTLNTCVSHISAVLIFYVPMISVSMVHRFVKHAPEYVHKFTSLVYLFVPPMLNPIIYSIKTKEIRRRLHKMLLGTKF
UniProt Q9WVD7, as listed by the source: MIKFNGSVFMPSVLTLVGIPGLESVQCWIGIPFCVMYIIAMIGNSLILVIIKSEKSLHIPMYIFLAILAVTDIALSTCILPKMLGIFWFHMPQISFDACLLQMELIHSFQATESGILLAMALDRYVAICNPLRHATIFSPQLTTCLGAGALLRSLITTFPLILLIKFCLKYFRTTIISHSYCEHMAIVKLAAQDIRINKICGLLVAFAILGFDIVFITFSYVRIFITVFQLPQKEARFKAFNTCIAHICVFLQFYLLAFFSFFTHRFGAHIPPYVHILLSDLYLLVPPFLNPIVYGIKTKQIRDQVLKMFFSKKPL

UniProt Q8VH10 = target: T2, UniProt Q8VH10
T2 sequence (whole entry): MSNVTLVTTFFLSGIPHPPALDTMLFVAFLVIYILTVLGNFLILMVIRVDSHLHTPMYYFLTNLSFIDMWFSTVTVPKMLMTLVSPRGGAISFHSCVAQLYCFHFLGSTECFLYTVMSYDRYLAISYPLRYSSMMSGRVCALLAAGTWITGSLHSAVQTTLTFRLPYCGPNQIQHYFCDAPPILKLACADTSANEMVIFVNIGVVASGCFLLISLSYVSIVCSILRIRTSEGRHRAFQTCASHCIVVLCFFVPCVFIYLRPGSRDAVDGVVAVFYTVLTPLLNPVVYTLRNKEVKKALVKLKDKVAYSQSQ
How it was run: as §1

UniProt Q8VH16 = target: T3, UniProt Q8VH16
T3 sequence (whole entry): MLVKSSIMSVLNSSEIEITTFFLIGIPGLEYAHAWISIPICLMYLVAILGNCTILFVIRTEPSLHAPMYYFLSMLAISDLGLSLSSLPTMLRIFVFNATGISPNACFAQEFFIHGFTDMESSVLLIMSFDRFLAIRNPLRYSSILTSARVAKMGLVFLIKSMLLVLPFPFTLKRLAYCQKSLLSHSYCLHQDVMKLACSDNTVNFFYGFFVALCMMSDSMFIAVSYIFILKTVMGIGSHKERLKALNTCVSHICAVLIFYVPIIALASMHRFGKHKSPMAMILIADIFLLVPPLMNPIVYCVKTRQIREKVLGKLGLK
How it was run: as §1

UniProt Q8VH20 = target: T4, UniProt Q8VH20
T4 sequence (whole entry): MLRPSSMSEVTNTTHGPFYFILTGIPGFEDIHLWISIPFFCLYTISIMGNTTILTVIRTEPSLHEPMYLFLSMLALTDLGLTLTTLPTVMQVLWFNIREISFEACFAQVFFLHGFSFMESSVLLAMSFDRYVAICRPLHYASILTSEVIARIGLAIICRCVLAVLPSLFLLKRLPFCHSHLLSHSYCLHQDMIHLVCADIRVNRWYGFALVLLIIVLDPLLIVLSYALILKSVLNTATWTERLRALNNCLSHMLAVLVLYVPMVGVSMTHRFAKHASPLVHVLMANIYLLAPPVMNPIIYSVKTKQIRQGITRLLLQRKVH
How it was run: as §1

UniProt Q8VH21 = target: T5, UniProt Q8VH21
T5 sequence (whole entry): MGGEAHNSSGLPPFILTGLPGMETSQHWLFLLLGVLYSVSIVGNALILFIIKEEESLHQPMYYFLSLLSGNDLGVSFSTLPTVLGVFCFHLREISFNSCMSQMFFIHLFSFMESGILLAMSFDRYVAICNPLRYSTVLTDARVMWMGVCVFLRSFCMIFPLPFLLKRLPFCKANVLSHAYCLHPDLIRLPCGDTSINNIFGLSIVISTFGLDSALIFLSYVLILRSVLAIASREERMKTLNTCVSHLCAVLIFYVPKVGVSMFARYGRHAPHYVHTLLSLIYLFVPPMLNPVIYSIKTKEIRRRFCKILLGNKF
How it was run: as §1

UniProt Q924H8 = target: T6, UniProt Q924H8
T6 sequence (whole entry): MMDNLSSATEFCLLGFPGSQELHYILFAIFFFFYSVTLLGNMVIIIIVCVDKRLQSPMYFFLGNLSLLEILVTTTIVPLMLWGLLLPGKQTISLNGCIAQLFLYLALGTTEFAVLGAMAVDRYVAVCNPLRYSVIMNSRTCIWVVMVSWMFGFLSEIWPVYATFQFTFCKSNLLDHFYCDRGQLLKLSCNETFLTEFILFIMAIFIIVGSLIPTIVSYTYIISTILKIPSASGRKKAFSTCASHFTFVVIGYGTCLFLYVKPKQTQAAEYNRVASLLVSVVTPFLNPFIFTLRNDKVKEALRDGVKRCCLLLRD
How it was run: as §1

UniProt Q99NH4 = target: T7, UniProt Q99NH4
T7 sequence (whole entry): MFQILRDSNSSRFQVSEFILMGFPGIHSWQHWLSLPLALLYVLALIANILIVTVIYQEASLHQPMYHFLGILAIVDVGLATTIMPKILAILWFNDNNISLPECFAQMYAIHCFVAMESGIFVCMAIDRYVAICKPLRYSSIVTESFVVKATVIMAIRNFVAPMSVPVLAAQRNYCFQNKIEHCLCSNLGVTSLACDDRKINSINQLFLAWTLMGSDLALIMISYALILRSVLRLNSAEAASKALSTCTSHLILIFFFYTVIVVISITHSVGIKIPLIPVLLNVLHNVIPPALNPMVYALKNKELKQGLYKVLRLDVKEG
How it was run: as §1

UniProt Q9EPN9 = target: T8, UniProt Q9EPN9
T8 sequence (whole entry): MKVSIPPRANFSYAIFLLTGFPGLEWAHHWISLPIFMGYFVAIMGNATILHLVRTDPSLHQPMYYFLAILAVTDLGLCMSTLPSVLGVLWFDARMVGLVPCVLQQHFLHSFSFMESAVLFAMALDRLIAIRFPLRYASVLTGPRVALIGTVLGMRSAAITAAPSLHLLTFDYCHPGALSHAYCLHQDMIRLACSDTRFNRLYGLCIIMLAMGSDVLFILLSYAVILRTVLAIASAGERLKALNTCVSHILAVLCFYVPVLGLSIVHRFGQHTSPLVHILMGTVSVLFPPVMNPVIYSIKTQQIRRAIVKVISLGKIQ
How it was run: as §1

UniProt Q9R0K2 = target: UniProt Q9R0K2
How it was run: as §1

UniProt Q9WU86 = target: T9, UniProt Q9WU86
T9 sequence (whole entry): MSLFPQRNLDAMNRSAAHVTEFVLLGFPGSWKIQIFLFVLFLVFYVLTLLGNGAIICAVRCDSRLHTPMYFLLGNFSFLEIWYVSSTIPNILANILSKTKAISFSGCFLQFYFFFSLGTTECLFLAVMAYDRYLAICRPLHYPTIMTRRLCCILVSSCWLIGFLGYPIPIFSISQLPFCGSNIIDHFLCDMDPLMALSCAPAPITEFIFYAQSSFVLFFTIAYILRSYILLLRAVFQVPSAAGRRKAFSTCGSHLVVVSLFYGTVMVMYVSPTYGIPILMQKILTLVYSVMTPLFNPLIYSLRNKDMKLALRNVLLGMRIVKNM
How it was run: as §1

UniProt Q9WVD9 = target: UniProt Q9WVD9
How it was run: as §1

UniProt Q9WVN5 = target: T10, UniProt Q9WVN5
T10 sequence (whole entry): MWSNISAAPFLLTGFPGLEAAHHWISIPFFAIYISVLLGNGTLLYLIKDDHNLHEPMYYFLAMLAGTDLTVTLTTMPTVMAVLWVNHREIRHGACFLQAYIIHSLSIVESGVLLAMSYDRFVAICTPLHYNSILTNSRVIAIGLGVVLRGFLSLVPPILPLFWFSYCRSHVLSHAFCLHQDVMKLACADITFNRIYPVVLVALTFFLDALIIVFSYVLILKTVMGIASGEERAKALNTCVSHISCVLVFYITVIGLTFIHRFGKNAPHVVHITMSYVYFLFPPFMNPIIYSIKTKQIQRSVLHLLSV
How it was run: as §1

UniProt Q8VH18 = target: T11, UniProt Q8VH18
T11 sequence (whole entry): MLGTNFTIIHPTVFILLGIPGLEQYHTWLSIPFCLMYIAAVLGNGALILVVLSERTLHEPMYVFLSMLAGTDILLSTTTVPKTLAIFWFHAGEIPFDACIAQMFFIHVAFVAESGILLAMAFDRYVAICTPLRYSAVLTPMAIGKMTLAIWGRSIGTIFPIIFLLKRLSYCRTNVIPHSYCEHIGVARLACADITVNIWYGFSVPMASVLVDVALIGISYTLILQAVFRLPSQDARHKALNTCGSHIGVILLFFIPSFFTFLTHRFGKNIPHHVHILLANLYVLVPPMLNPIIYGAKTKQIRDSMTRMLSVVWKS
How it was run: as §1

UniProt Q924X8 = target: UniProt Q924X8
How it was run: as §1

UniProt Q9WU94 = target: T12, UniProt Q9WU94
T12 sequence (whole entry): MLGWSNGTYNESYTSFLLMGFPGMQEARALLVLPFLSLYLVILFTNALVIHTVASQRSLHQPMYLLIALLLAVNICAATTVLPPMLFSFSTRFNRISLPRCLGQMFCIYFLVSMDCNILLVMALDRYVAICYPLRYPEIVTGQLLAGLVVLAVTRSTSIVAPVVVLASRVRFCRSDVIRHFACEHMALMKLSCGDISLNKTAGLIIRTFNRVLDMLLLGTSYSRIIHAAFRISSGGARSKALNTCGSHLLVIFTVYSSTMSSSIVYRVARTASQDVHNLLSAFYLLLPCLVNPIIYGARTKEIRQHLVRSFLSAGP
How it was run: as §1

UniProt Q9WVD7 = target: UniProt Q9WVD7
How it was run: as §1

UniProt Q920P1 = target: T13, UniProt Q920P1
T13 sequence (whole entry): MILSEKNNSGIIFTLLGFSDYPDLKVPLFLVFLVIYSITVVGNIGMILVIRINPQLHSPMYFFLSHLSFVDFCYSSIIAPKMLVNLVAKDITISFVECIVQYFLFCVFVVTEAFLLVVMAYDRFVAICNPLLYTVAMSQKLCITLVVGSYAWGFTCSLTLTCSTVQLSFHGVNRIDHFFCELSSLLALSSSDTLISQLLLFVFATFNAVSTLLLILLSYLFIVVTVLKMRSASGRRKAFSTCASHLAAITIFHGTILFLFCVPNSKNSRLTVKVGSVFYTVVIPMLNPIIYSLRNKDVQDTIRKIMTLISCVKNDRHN
How it was run: as §1

UniProt Q920P2 = target: T14, UniProt Q920P2
T14 sequence (whole entry): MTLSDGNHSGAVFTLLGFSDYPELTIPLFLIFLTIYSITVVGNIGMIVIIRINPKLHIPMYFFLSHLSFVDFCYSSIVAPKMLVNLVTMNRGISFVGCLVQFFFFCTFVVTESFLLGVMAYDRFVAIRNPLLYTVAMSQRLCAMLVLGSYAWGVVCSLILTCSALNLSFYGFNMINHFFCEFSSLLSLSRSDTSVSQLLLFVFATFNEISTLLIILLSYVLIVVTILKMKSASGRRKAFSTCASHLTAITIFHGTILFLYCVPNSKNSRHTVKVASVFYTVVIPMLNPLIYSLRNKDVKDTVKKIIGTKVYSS
How it was run: as §1

Measured: odorant receptor agonist call

CCCCCCCC=O
active: UniProt Q99NH4
not listed: UniProt Q8VH18 | UniProt Q924X8 | UniProt Q9WU94 | UniProt Q9WVD7 | UniProt Q920P1 | UniProt Q920P2
inactive: all other assays above

COC(=O)c1ccccc1O
inactive: UniProt Q8VGZ7 | UniProt Q8VH16 | UniProt Q8VH20 | UniProt Q8VH21 | UniProt Q924H8

CCCC(=O)O
inactive: UniProt Q8VH18 | UniProt Q924X8 | UniProt Q99NH4 | UniProt Q9WU94 | UniProt Q9WVD7

CC(=O)OC1CC2CCC1(C)C2(C)C (stereo not given)
inactive: UniProt Q8VGZ7 | UniProt Q8VH16 | UniProt Q8VH20 | UniProt Q8VH21 | UniProt Q924H8

O=C1CCCCC1
inactive: UniProt Q8VGZ7 | UniProt Q8VH10 | UniProt Q8VH20 | UniProt Q9EPN9 | UniProt Q9R0K2 | UniProt Q9WU86 | UniProt Q9WVD9 | UniProt Q9WVN5

CC(=O)C(C)=O
inactive: UniProt Q8VGZ7 | UniProt Q8VH16 | UniProt Q8VH20 | UniProt Q8VH21 | UniProt Q924H8

CCCCO
inactive: UniProt Q8VGZ7 | UniProt Q8VH16 | UniProt Q8VH20 | UniProt Q8VH21 | UniProt Q920P1 | UniProt Q920P2 | UniProt Q924H8 | UniProt Q99NH4

O=C1CCCCCCCCCCCCCCO1
inactive: UniProt Q8VGZ7 | UniProt Q8VH16 | UniProt Q8VH20 | UniProt Q8VH21 | UniProt Q924H8

CC=Cc1ccc(O)c(OC)c1
inactive: UniProt Q920P1 | UniProt Q920P2

Reference: the M2OR odorant receptor database
